Binding data for 17 molecules are collected here from PMC10820798.

Chains of the proteins cited; added tags and fusions are not shown.
UniProt Q8TCU4: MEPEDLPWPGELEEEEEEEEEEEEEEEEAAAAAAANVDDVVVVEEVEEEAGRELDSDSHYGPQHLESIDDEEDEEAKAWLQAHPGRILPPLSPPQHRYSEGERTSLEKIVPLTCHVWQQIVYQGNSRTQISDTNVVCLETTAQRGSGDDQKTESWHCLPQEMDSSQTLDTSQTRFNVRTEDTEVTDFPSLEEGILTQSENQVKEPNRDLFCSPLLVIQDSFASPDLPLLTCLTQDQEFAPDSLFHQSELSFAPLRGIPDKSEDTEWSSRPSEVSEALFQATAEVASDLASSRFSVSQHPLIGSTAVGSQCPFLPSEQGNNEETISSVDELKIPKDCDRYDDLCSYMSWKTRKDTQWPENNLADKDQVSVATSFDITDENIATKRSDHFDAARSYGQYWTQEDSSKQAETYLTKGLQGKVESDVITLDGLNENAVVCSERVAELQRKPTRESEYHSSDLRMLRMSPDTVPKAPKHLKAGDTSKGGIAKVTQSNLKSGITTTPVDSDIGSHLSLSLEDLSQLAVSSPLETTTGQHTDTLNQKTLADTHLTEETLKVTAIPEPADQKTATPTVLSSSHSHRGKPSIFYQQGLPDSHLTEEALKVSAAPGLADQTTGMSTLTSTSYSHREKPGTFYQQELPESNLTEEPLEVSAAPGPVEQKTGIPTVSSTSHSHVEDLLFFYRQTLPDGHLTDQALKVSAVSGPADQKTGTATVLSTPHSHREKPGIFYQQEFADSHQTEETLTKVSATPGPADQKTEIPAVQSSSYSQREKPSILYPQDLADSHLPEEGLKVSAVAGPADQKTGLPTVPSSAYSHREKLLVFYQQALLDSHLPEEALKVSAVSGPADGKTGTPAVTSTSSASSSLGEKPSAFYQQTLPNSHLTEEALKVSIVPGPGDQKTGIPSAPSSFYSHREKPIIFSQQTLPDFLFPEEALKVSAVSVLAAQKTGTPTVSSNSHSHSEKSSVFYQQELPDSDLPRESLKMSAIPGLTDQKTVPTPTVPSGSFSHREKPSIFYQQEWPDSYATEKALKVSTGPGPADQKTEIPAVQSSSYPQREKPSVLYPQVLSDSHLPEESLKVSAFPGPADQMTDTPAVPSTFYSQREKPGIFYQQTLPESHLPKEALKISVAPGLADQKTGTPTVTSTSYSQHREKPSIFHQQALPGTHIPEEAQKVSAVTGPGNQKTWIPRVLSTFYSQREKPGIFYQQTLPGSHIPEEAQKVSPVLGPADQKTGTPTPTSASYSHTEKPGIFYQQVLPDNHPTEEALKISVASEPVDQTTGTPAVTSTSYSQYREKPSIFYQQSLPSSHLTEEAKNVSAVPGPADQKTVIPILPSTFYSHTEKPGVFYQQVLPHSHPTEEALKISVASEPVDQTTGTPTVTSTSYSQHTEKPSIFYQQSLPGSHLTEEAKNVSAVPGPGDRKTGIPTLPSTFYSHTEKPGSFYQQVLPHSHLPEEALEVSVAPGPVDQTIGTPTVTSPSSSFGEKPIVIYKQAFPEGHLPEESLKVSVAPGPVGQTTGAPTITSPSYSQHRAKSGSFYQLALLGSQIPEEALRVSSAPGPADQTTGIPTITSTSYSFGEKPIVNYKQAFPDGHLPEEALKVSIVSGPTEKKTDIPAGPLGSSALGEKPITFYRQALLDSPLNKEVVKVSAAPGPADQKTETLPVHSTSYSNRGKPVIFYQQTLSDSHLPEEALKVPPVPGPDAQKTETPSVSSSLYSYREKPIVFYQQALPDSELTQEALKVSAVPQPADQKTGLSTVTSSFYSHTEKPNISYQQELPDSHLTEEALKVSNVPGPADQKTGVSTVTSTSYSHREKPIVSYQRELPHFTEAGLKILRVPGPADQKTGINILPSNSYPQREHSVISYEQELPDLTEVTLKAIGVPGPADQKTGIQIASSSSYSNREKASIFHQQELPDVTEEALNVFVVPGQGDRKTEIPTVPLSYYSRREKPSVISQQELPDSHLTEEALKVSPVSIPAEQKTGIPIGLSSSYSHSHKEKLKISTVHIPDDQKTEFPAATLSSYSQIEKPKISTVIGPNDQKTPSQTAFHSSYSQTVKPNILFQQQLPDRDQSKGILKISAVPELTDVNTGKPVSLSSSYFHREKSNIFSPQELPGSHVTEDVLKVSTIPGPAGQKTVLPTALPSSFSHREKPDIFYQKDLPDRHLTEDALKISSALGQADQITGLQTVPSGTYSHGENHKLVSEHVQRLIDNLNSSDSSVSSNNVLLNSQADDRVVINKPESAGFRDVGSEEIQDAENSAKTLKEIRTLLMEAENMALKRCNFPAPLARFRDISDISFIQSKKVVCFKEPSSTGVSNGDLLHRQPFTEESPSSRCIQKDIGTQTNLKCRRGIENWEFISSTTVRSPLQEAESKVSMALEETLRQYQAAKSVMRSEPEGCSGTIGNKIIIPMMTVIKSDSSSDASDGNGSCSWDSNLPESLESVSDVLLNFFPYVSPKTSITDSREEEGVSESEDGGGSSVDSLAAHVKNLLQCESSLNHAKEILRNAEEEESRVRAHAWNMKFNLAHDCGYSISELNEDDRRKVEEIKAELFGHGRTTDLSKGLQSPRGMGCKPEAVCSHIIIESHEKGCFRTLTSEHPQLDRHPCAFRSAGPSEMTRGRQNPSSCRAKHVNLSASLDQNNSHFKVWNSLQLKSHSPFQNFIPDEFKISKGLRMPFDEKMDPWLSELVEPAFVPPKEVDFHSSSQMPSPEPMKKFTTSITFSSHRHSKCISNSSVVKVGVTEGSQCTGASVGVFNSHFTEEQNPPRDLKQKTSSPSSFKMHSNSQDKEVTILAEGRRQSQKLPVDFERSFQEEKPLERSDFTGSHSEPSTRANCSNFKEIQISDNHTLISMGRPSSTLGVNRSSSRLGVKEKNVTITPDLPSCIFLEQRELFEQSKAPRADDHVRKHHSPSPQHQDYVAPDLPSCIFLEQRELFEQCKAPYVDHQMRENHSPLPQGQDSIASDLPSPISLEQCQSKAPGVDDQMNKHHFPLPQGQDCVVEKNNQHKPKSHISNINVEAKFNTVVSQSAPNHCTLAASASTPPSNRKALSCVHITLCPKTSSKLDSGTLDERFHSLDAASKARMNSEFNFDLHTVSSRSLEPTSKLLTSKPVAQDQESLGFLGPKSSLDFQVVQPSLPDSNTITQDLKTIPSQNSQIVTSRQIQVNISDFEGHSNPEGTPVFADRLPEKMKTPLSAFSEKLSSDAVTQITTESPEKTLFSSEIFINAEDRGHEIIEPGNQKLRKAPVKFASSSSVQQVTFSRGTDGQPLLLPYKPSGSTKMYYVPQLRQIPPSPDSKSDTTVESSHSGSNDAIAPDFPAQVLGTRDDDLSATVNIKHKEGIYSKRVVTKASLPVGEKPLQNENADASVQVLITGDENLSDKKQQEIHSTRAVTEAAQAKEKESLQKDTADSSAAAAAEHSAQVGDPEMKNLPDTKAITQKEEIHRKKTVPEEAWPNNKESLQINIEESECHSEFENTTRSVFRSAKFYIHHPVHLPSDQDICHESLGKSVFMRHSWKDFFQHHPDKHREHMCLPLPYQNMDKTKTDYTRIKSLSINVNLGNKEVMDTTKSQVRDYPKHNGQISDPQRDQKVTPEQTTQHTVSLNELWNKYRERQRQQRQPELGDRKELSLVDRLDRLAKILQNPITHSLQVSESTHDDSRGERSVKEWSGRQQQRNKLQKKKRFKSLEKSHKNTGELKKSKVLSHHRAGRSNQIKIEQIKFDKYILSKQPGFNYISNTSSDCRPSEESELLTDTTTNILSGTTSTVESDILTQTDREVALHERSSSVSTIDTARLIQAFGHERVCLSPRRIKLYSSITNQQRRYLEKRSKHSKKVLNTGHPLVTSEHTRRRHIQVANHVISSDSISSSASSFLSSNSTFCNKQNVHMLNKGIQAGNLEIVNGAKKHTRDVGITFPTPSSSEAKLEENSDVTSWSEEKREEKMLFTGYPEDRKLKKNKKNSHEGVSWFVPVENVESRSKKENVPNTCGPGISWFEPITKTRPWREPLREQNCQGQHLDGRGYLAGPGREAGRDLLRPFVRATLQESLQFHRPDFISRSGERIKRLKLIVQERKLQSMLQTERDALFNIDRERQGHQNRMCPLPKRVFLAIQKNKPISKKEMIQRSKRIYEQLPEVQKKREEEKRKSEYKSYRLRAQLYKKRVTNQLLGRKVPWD
UniProt P10644: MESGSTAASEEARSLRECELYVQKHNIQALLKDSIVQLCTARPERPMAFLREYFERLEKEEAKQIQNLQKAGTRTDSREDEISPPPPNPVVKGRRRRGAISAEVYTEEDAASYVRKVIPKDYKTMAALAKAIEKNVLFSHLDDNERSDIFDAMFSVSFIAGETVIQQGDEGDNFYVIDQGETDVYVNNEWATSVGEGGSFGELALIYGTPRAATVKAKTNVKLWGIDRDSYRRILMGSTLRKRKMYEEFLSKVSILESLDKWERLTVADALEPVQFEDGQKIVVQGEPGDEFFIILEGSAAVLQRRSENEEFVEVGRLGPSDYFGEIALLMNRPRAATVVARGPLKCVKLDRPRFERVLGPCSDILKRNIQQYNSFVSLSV
UniProt Q9BTV5: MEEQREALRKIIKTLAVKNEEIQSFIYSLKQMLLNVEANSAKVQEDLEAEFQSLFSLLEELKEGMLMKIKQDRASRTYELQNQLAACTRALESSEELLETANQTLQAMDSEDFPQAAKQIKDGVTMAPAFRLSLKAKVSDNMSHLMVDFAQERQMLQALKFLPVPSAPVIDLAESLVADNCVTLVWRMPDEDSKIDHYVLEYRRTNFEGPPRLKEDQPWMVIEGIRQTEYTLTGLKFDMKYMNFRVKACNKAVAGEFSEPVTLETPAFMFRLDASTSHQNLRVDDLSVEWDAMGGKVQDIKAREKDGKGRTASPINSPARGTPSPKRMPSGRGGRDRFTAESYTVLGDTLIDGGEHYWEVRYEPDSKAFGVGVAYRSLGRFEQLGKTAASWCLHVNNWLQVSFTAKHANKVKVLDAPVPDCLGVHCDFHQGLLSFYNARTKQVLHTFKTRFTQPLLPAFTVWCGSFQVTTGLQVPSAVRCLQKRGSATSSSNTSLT
UniProt Q9NT62: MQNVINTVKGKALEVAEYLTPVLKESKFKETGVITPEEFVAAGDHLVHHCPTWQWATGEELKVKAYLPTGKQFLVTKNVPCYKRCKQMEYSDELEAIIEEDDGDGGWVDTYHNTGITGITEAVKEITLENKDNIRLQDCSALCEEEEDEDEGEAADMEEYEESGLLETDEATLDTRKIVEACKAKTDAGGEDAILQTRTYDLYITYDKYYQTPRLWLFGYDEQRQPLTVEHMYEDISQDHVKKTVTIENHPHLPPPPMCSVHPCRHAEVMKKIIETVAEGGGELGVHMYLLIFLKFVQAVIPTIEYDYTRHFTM
UniProt O43823: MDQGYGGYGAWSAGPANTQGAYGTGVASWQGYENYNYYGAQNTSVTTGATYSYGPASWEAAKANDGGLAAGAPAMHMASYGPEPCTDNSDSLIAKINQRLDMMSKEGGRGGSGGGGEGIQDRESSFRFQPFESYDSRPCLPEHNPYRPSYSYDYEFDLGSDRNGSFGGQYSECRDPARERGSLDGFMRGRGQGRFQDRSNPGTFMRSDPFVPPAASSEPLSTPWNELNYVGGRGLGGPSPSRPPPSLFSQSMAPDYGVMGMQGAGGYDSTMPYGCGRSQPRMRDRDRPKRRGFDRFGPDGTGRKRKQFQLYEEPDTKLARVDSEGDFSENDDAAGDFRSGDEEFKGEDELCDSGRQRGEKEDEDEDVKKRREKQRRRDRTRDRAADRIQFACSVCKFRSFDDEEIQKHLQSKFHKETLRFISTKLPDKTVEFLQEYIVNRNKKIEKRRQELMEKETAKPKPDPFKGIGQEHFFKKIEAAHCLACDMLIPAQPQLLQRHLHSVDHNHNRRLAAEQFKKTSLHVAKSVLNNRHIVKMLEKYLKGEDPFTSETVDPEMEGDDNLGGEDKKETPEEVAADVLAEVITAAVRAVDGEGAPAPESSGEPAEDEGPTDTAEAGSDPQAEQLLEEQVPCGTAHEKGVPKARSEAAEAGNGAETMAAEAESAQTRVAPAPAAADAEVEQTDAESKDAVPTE
UniProt Q07812: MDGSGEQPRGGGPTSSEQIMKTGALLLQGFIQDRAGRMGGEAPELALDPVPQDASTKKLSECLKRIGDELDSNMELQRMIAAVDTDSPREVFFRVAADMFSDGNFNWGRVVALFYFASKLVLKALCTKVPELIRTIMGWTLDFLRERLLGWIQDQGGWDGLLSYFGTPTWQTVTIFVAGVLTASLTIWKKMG

No constants are given. Whether binding was seen depends on the method and setting. In cells and extracts the contact can be indirect. A yes stands for co-enrichment or nearness to the bait. Other partners may have been found. For part of these data: No binding means not detected with the bait. For part of these data: Tags and fused reporters may be left off the sequences shown.

The target of test [1] is endogenously sfGFP-tagged ALMS1 (ALMS1-sfGFP) (human (endogenous in HEK293T)) (UniProt Q8TCU4). As to the kind of experiment: affinity purification with mass spectrometry; GFP-Trap agarose on lysates (0.5% NP40) of three HEK293T single clones with endogenous ALMS1-sfGFP, starved overnight; 1 h at 4 °C; untagged HEK293T as control; six replicates; label-free quantification, Tier 1/Tier 2 statistics.

Test [2] deals with T1, N-terminal Strep/FLAG-tagged CEP70 full-length (NSF-CEP70) (human) (UniProt Q8NHQ1).
T1 sequence: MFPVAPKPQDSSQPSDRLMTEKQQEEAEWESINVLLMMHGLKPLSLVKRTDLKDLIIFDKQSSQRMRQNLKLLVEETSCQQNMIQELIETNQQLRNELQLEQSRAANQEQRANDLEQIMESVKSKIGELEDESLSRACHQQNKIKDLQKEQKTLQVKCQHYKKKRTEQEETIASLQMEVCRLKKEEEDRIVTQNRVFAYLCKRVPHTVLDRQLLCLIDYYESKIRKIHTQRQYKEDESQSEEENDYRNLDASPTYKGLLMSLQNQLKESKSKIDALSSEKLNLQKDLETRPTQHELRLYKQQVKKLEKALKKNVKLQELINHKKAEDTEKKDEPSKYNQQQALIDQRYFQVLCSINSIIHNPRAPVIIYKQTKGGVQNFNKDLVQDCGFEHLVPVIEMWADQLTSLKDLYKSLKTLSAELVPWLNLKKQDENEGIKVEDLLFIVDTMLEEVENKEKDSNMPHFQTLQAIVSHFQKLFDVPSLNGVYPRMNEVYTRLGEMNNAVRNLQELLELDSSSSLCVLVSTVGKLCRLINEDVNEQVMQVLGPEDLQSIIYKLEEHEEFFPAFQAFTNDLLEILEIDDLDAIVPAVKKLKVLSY
As to the kind of experiment: affinity purification with mass spectrometry; FLAG agarose on lysates (0.5% NP40) of HEK293T transfected with NSF-CEP70 full-length, CC1-2 or TPR-CT; 1 h at 4 °C; on-bead digest; NSF-RAF1 as control; six replicates; label-free quantification, Tier 1/Tier 2 statistics.

As for NEURL4 (from UniProt Q96JN8 1-1562), the binding entry in test [1] is reported as “binds”. Same read-out and setting: under PRKAR1A (from UniProt P10644 1-381) stands “binds”; under AKAP11 (from UniProt Q9UKA4 1-1901), “binds”; under FSD1 (from UniProt Q9BTV5 1-496), “binds”. For ATG3 (from UniProt Q9NT62 1-314), the binding entry in test [2] is listed as “binds”.

As to AKAP8 (from UniProt O43823 1-692), the binding entry in test [2] and in test [1] was “binds” in each case. On to CXorf56 (from UniProt Q9H5V9 1-222), for which the binding entry in test [2] and in test [1] was “binds” throughout.

Consider UBR4 (from UniProt Q5T4S7 1-5183), for which the binding entry in test [2] was “binds”. With “histone deacetylase 6 (HDAC6) (from UniProt Q9UBN7 1-1215)”, the binding entry is given as “no binding” in test [2] and “binds” in test [1].

Regarding “E3 ubiquitin-protein ligase HERC2 (from UniProt O95714 1-4834)”, the binding entry in test [1] is listed as “binds”. Consider BAX (from UniProt Q07812 1-192), for which the binding result in test [2] is “binds”.

Take CEP350 (from UniProt Q5VT06 1-3117): in test [2], the binding result was “binds”. As to ASPM (from UniProt Q8IZT6 1-3477), the binding result in test [2] and in test [1] was “binds” throughout.

B1: UACA (protein, UniProt Q9BZF9 1-1416)
chain: MKSLKSRLRRQDVPGPASSGAAAASAHAADWNKYDDRLMKAAERGDVEKVTSILAKKGVNPGKLDVEGRSVFHVVTSKGNLECLNAILIHGVDITTSDTAGRNALHLAAKYGHALCLQKLLQYNCPTEHADLQGRTALHDAAMADCPSSIQLLCDHGASVNAKDVDGRTPLVLATQMSRPTICQLLIDRGADVNSRDKQNRTALMLGCEYGCRDAVEVLIKNGADISLLDALGHDSSYYARIGDNLDILTLLKTASENTNKGRELWKKGPSLQQRNLTHMQDEVNVKSHQREHQNIQDLEIENEDLKERLRKIQQEQRILLDKVNGLQLQLNEEVMVADDLESEREKLKSLLAAKEKQHEESLRTIEALKNRFKYFESDHLGSGSHFSNRKEDMLLKQGQMYMADSQCTSPGIPAHMQSRSMLRPLELSLPSQTSYSENEILKKELEAMRTFCESAKQDRLKLQNELAHKVAECKALALECERVKEDSDEQIKQLEDALKDVQKRMYESEGKVKQMQTHFLALKEHLTSEAASGNHRLTEELKDQLKDLKVKYEGASAEVGKLRNQIKQNEMIVEEFKRDEGKLIEENKRLQKELSMCEMEREKKGRKVTEMEGQAKELSAKLALSIPAEKFENMKSSLSNEVNEKAKKLVEMEREHEKSLSEIRQLKRELENVKAKLAQHVKPEEHEQVKSRLEQKSGELGKKITELTLKNQTLQKEIEKVYLDNKLLKEQAHNLTIEMKNHYVPLKVSEDMKKSHDAIIDDLNRKLLDVTQKYTEKKLEMEKLLLENDSLSKDVSRLETVFVPPEKHEKEIIALKSNIVELKKQLSELKKKCGEDQEKIHALTSENTNLKKMMSNQYVPVKTHEEVKMTLNDTLAKTNRELLDVKKKFEDINQEFVKIKDKNEILKRNLENTQNQIKAEYISLAEHEAKMSSLSQSMRKVQDSNAEILANYRKGQEEIVTLHAEIKAQKKELDTIQECIKVKYAPIVSFEECERKFKATEKELKDQLSEQTQKYSVSEEEVKKNKQENDKLKKEIFTLQKDLRDKTVLIEKSHEMERALSRKTDELNKQLKDLSQKYTEVKNVKEKLVEENAKQTSEILAVQNLLQKQHVPLEQVEALKKSLNGTIENLKEELKSMQRCYEKEQQTVTKLHQLLENQKNSSVPLAEHLQIKEAFEKEVGIIKASLREKEEESQNKMEEVSKLQSEVQNTKQALKKLETREVVDLSKYKATKSDLETQISSLNEKLANLNRKYEEVCEEVLHAKKKEISAKDEKELLHFSIEQEIKDQKERCDKSLTTITELQRRIQESAKQIEAKDNKITELLNDVERLKQALNGLSQLTYTSGNPTKRQSQLIDTLQHQVKSLEQQLADADRQHQEVIAIYRTHLLSAAQGHMDEDVQEALLQIIQMRQGLVC
B1: the binding result in test [2] is “binds”.

B2: CEP135 (protein, UniProt Q66GS9 1-1140)
chain: MTTAVERKYINIRKRLDQLGYRQTLTVECLPLVEKLFSDLVHTTESLRQSKLSAVKAEKESANFDFVLEPYKLENARLSRENNELYLELMKLREHSDQHVKELKTSLKKCARETADLKFLNNQYAHKLKLLEKESKAKNERIQQLQEKNLHAVVQTPGGKKRSIAFRRQRMQIDEPVPPSEVSSYPVPQPDDPYIADLLQVADNRIQELQQEVHQLQEKLAMMESGVRDYSKQIELREREIERLSVALDGGRSPDVLSLESRNKTNEKLIAHLNIQVDFLQQANKDLEKRIRELMETKETVTSEVVNLSNKNEKLCQELTEIDQLAQQLERHKEEVLETADKELGEAKKEIKRKLSEMQDLEETMAKLQLELNLCQKEKERLSDELLVKSDLETVVHQLEQEKQRLSKKVESFAVTERQLTLEVERMRLEHGIKRRDRSPSRLDTFLKGIEEERDYYKKELERLQHIIQRRSCSTSYSAREKSSIFRTPEKGDYNSEIHQITRERDELQRMLERFEKYMEDIQSNVKLLTAERDKLSVLYNEAQEELSALRKESTQTTAPHNIVSLMEKEKELALSDLRRIMAEKEALREKLEHIEEVSLFGKSELEKTIEHLTCVNHQLESEKYELKSKVLIMKETIESLENKLKVQAQKFSHVAGDSSHQKTEVNSLRIVNEQLQRSVDDYQHRLSIKRGELESAQAQIKILEEKIDELNLKMTSQDEEAHVMKKTIGVIDKEKDFLQETVDEKTEKIANLQENLANKEKAVAQMKIMISECESSVNQLKETLVNRDREINSLRRQLDAAHKELDEVGRSREIAFKENRRLQDDLATMARENQEISLELEAAVQEKEEMKSRVHKYITEVSRWESLMAAKEKENQDLLDRFQMLHNRAEDWEVKAHQAEGESSSVRLELLSIDTERRHLRERVELLEKEIQEHINAHHAYESQISSMAKAMSRLEEELRHQEDEKATVLNDLSSLRELCIKLDSGKDIMTQQLNSKNLEFERVVVELENVKSESDLLKKQLSNERHTVKNLESLLATNRDKEFHSHLTSHEKDTEIQLLKEKLTLSESKLTSQSRENTMLRAKVAQLQTDYDALKRQISTERYERERAIQEMRRHGLATPPLSSTLRSPSHSPEHRNV
For B2, the binding result in test [2] is “binds”.

B3: TP53PK (protein, UniProt Q96S44 1-253)
chain: MAAARATTPADGEEPAPEAEALAAARERSSRFLSGLELVKQGAEARVFRGRFQGRAAVIKHRFPKGYRHPALEARLGRRRTVQEARALLRCRRAGISAPVVFFVDYASNCLYMEEIEGSVTVRDYIQSTMETEKTPQGLSNLAKTIGQVLARMHDEDLIHGDLTTSNMLLKPPLEQLNIVLIDFGLSFISALPEDKGVDLYVLEKAFLSTHPNTETVFEAFLKSYSTSSKKARPVLKKLDEVRLRGRKRSMVG
B3: the binding result in test [2] is listed as “binds”.

B4: Ectonucleotide pyrophosphatase/phosphodiesterase family member 1 (ENPP1) (protein, UniProt P22413 1-925)
chain: MERDGCAGGGSRGGEGGRAPREGPAGNGRDRGRSHAAEAPGDPQAAASLLAPMDVGEEPLEKAARARTAKDPNTYKVLSLVLSVCVLTTILGCIFGLKPSCAKEVKSCKGRCFERTFGNCRCDAACVELGNCCLDYQETCIEPEHIWTCNKFRCGEKRLTRSLCACSDDCKDKGDCCINYSSVCQGEKSWVEEPCESINEPQCPAGFETPPTLLFSLDGFRAEYLHTWGGLLPVISKLKKCGTYTKNMRPVYPTKTFPNHYSIVTGLYPESHGIIDNKMYDPKMNASFSLKSKEKFNPEWYKGEPIWVTAKYQGLKSGTFFWPGSDVEINGIFPDIYKMYNGSVPFEERILAVLQWLQLPKDERPHFYTLYLEEPDSSGHSYGPVSSEVIKALQRVDGMVGMLMDGLKELNLHRCLNLILISDHGMEQGSCKKYIYLNKYLGDVKNIKVIYGPAARLRPSDVPDKYYSFNYEGIARNLSCREPNQHFKPYLKHFLPKRLHFAKSDRIEPLTFYLDPQWQLALNPSERKYCGSGFHGSDNVFSNMQALFVGYGPGFKHGIEADTFENIEVYNLMCDLLNLTPAPNNGTHGSLNHLLKNPVYTPKHPKEVHPLVQCPFTRNPRDNLGCSCNPSILPIEDFQTQFNLTVAEEKIIKHETLPYGRPRVLQKENTICLLSQHQFMSGYSQDILMPLWTSYTVDRNDSFSTEDFSNCLYQDFRIPLSPVHKCSFYKNNTKVSYGFLSPPQLNKNSSGIYSEALLTTNIVPMYQSFQVIWRYFHDTLLRKYAEERNGVNVVSGPVFDFDYDGRCDSLENLRQKRRVIRNQEILIPTHFFIVLTSCKDTSQTPLHCENLDTLAFILPHRTDNSESCVHGKHDSSWVEELLMLHRARITDVEHITGLSFYQQRKEPVSDILKLKTHLPTFSQED
Regarding B4, in test [2], the binding result is reported as “binds”.
